Literature values, collected in patent publication US4461765A, “Suppository containing sulfamethoxazole/trimethoprim complex and process for preparing the same” (Shionogi & Co., Ltd., priority 1979, dated 1984).
Values after ≈ are worked out from the molar mass of the structure shown.

Conditions: co-trimoxazol SMX:TMP 5:1; oral or intravenous administration

Cc1cc(NS(=O)(=O)c2ccc(N)cc2)no1 [SMX, sulfamethoxazole]
minimum inhibition concentration in the blood level: 12 µg/mL (≈ 47.4 µM)
